The text below walks through data of article PMC9192638, “Compact IF2 allows initiator tRNA accommodation into the P site and gates the ribosome to elongation” (Nature Communications, 2022).

Sequences of proteins named here, by UniProt entry; tags and fusion partners are left off.
UniProt Q9HV55: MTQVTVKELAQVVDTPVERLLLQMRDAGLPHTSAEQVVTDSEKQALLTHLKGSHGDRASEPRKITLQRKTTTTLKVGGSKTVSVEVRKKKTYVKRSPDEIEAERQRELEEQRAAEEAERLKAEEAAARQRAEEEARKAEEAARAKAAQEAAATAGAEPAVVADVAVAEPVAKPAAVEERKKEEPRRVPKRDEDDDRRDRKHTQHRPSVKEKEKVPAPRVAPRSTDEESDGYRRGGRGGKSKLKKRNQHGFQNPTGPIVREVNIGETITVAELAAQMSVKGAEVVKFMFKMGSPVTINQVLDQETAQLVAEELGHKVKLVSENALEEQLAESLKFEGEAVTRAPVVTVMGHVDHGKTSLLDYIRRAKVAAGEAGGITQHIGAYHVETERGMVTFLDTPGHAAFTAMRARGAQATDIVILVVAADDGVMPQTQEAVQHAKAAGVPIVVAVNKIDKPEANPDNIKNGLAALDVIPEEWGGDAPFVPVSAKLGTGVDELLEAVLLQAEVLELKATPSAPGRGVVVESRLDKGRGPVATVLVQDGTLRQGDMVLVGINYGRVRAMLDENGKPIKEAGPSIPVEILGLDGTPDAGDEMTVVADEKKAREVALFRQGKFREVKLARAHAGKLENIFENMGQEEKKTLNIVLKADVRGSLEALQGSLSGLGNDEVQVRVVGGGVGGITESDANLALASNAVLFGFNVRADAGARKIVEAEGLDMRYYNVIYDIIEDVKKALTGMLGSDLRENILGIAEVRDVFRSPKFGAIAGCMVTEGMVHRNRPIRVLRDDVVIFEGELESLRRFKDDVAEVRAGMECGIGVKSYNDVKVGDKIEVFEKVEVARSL

This assay addresses T1, ribosomal protein uL6 (Pseudomonas aeruginosa PAO1 (endogenous in purified ribosomes)) (UniProt Q9HWF0).
T1 sequence: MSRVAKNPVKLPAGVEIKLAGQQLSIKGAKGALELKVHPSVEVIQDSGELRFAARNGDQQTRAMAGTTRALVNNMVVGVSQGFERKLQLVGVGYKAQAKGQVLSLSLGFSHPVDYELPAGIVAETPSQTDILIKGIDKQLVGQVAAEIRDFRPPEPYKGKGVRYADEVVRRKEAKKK
The assay is described as follows: cryo-EM structure; non-rotated 70S-IC with compact IF2-GDP, structure I-A (30 S rotated by ~1.4 degrees); same sample as a1, sorted by 3D classification; both purified.

These are yes or no findings as the source states them, for the method shown.

“initiation factor 2 (IF2) from Pseudomonas aeruginosa (from UniProt Q9HV55 1-840)”: the binding entry was “no binding”.
